This data set deals with internal kinase selectivity panel (∼90 kinases). Put plainly: DSF-based selectivity screening, whole panel. The format is binding. The settings on record: number of kinases showing a thermal shift >5 °C divided by the total number of kinases screened.
Take `COc1ccc(CNC(=O)Nc2ccc3cc2OCCOCCNc2ccn4ncc-3c4n2)cc1F` [compound 32]: the “S (5 °C) selectivity score” value was 0.09. As to `O=C(NCc1ccccc1Cl)Nc1ccc2cc1OCCOCCNc1ccn3ncc-2c3n1` [compound 17], the “S (5 °C) selectivity score” value is reported as 0.09. Take `Cc1cc(Cl)ccc1CNC(=O)Nc1ccc2cc1OCCOCCNc1ccn3ncc-2c3n1` [compound 23]: the “S (5 °C) selectivity score” value was 0.08. The figure for `Cc1ccc(F)cc1CNC(=O)Nc1ccc2cc1OCCOCCNc1ccn3ncc-2c3n1` [compound 26] is 0.08; for `COc1ccccc1CNC(=O)Nc1ccc2cc1OCCOCCNc1ccn3ncc-2c3n1` [compound 29] it is 0.06.

On to `C[C@H](NC(=O)Nc1ccc2cc1OCCOCCNc1ccn3ncc-2c3n1)c1ccccc1` [compound 34], for which the “S (5 °C) selectivity score” value was determined as 0.10. The result for `COc1cc(CNC(=O)Nc2ccc3cc2OCCOCCNc2ccn4ncc-3c4n2)ccc1F` [compound 33] reads 0.10; that for `O=C(NCc1ccc(Cl)cc1Cl)Nc1ccc2cc1OCCOCCNc1ccn3ncc-2c3n1` [compound 20], 0.07. Consider `O=C(NCc1ccc(Cl)cc1)Nc1ccc2cc1OCCOCCNc1ccn3ncc-2c3n1` [compound 19], for which the “S (5 °C) selectivity score” value was determined as 0.10. The result for `Cc1cc(Br)ccc1CNC(=O)Nc1ccc2cc1OCCOCCNc1ccn3ncc-2c3n1` [compound 24] reads 0.06; that for `O=C(NCc1ccc(C(F)(F)F)cc1)Nc1ccc2cc1OCCOCCNc1ccn3ncc-2c3n1` [compound 28], 0.08; that for `CN1CCN(C(=O)Nc2ccc3cc2OCCOCCNc2ccn4ncc-3c4n2)CC1` [compound 35], 0.02. The result for `O=C(NCc1ccccc1)Nc1ccc2cc1OCCOCCNc1ccn3ncc-2c3n1` [compound 16] reads 0.11; that for `COc1cccc(CNC(=O)Nc2ccc3cc2OCCOCCNc2ccn4ncc-3c4n2)c1` [compound 30], 0.07. Take `O=C(NCc1ccc(Cl)cc1F)Nc1ccc2cc1OCCOCCNc1ccn3ncc-2c3n1` [compound 21]: the “S (5 °C) selectivity score” value is reported as 0.10. The figure for `O=C(NCc1ccccc1C(F)(F)F)Nc1ccc2cc1OCCOCCNc1ccn3ncc-2c3n1` [compound 27] is 0.08; for `O=C(NCc1cccc(Cl)c1)Nc1ccc2cc1OCCOCCNc1ccn3ncc-2c3n1` [compound 18] it is 0.07.

The values are drawn from paper PMC12621043, “Un-LOK-ing a New Approach for Conformational Selective Targeting of STK10 (LOK)” (ACS Medicinal Chemistry Letters, 2025).
